Record: PubChem BioAssay AID1224828 (NIAID, 2016)

- Assay: 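Knock-downs that increase or decrease LPS-induced p65 nuclear translocation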 (primary screen)
- Cells: mouse RAW264.7 G9 macrophage reporter cells (GFP-p65, Tnf promoter-mCherry)
- Knock-down reagent: siRNA pool against mouse genes, 100 nM
- Duration: 2 days siRNA transfection, then 40 min LPS before fixation
- Challenge: LPS (Salmonella minnesota R595) at 10 ng/ml
- Detection: 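Microscopy ratio of nuclear to perinuclear-ring GFP-p65 signal, scaled to the plate median; gene score is the average of two replicate robust z-scores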
- Scale: p65 translocation robust z-score: higher = more nuclear NF-kappaB p65 after LPS than the plate median; nuclear/cytoplasmic p65 ratio: higher = more nuclear NF-kappaB p65
- Call rule: 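Active if robust z is above 3.3 (negative regulators) or below -1.56, the Tlr4 control median (positive regulators); activity score 50 or more; control wells not called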
- Meaning of the calls: active = hit (p65 shift raised or lowered); inactive = no clear change
In all, the deposit lists about 17,000 reagents; below is an unselected part. Over the whole deposit, 762 (4.5%) were called active. 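Active calls include both raised and lowered p65 entry, mostly lowered; wells with fewer than 50 cells lack a z-score.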 Raw values are not corrected between plates.

gene knocked down	p65 translocation robust z-score	nuclear/cytoplasmic p65 ratio, rep 1	nuclear/cytoplasmic p65 ratio, rep 2	low cell count flag	Outcome
4931414P19Rik (GeneID 74359)		1.17	1.35	fewer than 50 cells per well; well left out of scoring	inactive
Or5an6 (GeneID 258679)	2.42	2.03	1.69	enough cells to score	inactive
Patj (GeneID 12695)	-0.59	1.45	1.74	enough cells to score	inactive
Dusp28 (GeneID 67446)		1.37	1.38	fewer than 50 cells per well; well left out of scoring	inactive
Nr2f6 (GeneID 13864)	-0.49	1.36	1.37	enough cells to score	inactive
Fam124b (GeneID 241128)		1.32	1.43	fewer than 50 cells per well; well left out of scoring	inactive
Pxdc1 (GeneID 66895)	-0.39	1.4	1.47	enough cells to score	inactive
Tekt2 (GeneID 24084)	1.18	1.48	1.35	enough cells to score	inactive
Mysm1 (GeneID 320713)	1.6	1.64	1.76	enough cells to score	inactive
Kif27 (GeneID 75050)	1.37	1.42	1.47	enough cells to score	inactive
Irx2 (GeneID 16372)	-0.15	1.54	1.4	enough cells to score	inactive
Kir3dl1 (GeneID 245616)	-0.54	1.4	1.27	enough cells to score	inactive
Vmn1r47 (GeneID 113846)		1.48	1.35	fewer than 50 cells per well; well left out of scoring	inactive
Snrpa (GeneID 53607)		1.86	1.35	fewer than 50 cells per well; well left out of scoring	inactive
Ptpn21 (GeneID 24000)	-1.14	1.33	1.27	enough cells to score	inactive
Chrm5 (GeneID 213788)	-2	1.12	1.19	enough cells to score	active
Catsper4 (GeneID 329954)	-0.26	1.56	1.74	enough cells to score	inactive
Krt13 (GeneID 16663)	-1.68	1.3	1.12	enough cells to score	active
Phxr1 (GeneID 18686)		1.39	1.23	fewer than 50 cells per well; well left out of scoring	inactive
Mbnl2 (GeneID 105559)	-1.82	1.43	1.25	enough cells to score	active
Ca4 (GeneID 12351)	0.01	1.6	1.78	enough cells to score	inactive
Mrpl55 (GeneID 67212)	-1.47	1.51	1.41	enough cells to score	inactive
Trpv2 (GeneID 22368)	-0.2	1.45	1.5	enough cells to score	inactive
Socs1 (GeneID 12703)	-0.46	1.58	1.35	enough cells to score	inactive
Zfp169 (GeneID 67911)	1.92	1.6	1.71	enough cells to score	inactive
Triml1 (GeneID 244448)	-0.27	1.41	1.47	enough cells to score	inactive
Cyp4f18 (GeneID 72054)	0.09	1.57	1.82	enough cells to score	inactive
Metap1d (GeneID 66559)	1.33	1.89	1.77	enough cells to score	inactive
Or1o3 (GeneID 258503)	0.24	1.44	1.3	enough cells to score	inactive
Nr1d1 (GeneID 217166)	-2.15	1.14	1.15	enough cells to score	active
Bex1 (GeneID 19716)	0.2	1.43	1.25	enough cells to score	inactive
Egflam (GeneID 268780)	0.15	1.49	1.66	enough cells to score	inactive
Irs3 (GeneID 16369)	-0.03	1.6	1.38	enough cells to score	inactive
Gid4 (GeneID 66771)		1.46	1.39	fewer than 50 cells per well; well left out of scoring	inactive
Chchd4 (GeneID 72170)	-0.72	1.46	1.7	enough cells to score	inactive
Itga7 (GeneID 16404)	1.84	1.68	1.66	enough cells to score	inactive
Tcf7l2 (GeneID 21416)	-0.51	1.44	1.45	enough cells to score	inactive
Rapgef3 (GeneID 223864)	0.87	1.87	1.45	enough cells to score	inactive
Crhr1 (GeneID 12921)	-0.75	1.35	1.53	enough cells to score	inactive
Sod1 (GeneID 20655)	0.69	1.64	1.66	enough cells to score	inactive

Reformatted: 3 of the entries above
{"gene knocked down":"Krt13 (GeneID 16663)","p65 translocation robust z-score":-1.68,"nuclear/cytoplasmic p65 ratio, rep 1":1.3,"nuclear/cytoplasmic p65 ratio, rep 2":1.12,"low cell count flag":"enough cells to score","Outcome":"active"}
{"gene knocked down":"Phxr1 (GeneID 18686)","nuclear/cytoplasmic p65 ratio, rep 1":1.39,"nuclear/cytoplasmic p65 ratio, rep 2":1.23,"low cell count flag":"fewer than 50 cells per well; well left out of scoring","Outcome":"inactive"}
{"gene knocked down":"Mbnl2 (GeneID 105559)","p65 translocation robust z-score":-1.82,"nuclear/cytoplasmic p65 ratio, rep 1":1.43,"nuclear/cytoplasmic p65 ratio, rep 2":1.25,"low cell count flag":"enough cells to score","Outcome":"active"}
